Experimental findings from publication PMC8140593 (PeerJ, 2021) are described below.

The data set is described as follows: general procedure: solution-phase peptide synthesis; pentafluorophenyl trifluoroacetate / bis(pentafluorophenyl) carbonate (pentafluo).

Under “coupling step”, “Nα-tert-butoxycarbonyl-l-alanyl-α-tert-butyl-d-glutamyl-l-alanyl-d-alanine tert butyl ester” returned a step yield of 62%. In turn, “l-alanyl-γ-d-glutamyl-l-alanyl-d-alanine trifluoroacetate” had a step yield (late stage modification step) of 92%.
